Experimental data as given in article PMC5421940.
These are yes or no findings as the source states them, for the method shown. Binding seen in cells or lysates may run through a third protein. Some entries that bind do so weakly or less than the wild type. For some assays here: Sequences can lack the tags named with a protein.

Sequences of proteins named here, by UniProt entry; tags and fusion partners are left off. A change or cut given only in a name is not applied to a line headed by its entry.
UniProt Q9Y6K9: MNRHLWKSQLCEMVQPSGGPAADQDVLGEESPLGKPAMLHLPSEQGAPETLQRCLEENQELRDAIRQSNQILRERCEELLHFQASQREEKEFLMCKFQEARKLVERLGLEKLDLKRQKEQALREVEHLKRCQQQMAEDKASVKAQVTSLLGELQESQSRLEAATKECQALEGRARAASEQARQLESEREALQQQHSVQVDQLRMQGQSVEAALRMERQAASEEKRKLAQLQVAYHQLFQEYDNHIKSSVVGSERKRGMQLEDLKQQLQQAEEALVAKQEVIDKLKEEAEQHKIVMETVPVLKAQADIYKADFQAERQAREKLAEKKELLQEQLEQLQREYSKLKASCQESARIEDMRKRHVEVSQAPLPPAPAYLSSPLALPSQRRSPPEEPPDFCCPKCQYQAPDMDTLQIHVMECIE

T1: FLAG-PP4c (expressed in cells) (UniProt P60510)
T1 sequence: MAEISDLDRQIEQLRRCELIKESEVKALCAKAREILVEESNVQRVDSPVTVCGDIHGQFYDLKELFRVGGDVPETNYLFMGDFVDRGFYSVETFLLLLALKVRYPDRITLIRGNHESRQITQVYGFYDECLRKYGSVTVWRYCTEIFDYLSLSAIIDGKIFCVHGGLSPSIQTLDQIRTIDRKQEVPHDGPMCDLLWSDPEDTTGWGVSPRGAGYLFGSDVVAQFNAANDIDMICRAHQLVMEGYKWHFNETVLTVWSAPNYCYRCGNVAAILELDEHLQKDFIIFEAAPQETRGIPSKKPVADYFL

B1: endogenous PP4R1 (MCC13 cells) (protein, UniProt Q8TF05 1-950)
chain: MADLSLLQEDLQEDADGFGVDDYSSESDVIIIPSALDFVSQDEMLTPLGRLDKYAASENIFNRQMVARSLLDTLREVCDDERDCIAVLERISRLADDSEPTVRAELMEQVPHIALFCQENRPSIPYAFSKFLLPIVVRYLADQNNQVRKTSQAALLALLEQELIERFDVETKVCPVLIELTAPDSNDDVKTEAVAIMCKMAPMVGKDITERLILPRFCEMCCDCRMFHVRKVCAANFGDICSVVGQQATEEMLLPRFFQLCSDNVWGVRKACAECFMAVSCATCQEIRRTKLSALFINLISDPSRWVRQAAFQSLGPFISTFANPSSSGQYFKEESKSSEEMSVENKNRTRDQEAPEDVQVRPEDTPSDLSVSNSSVILENTMEDHAAEASGKPLGEISVPLDSSLLCTLSSESHQEAASNENDKKPGNYKSMLRPEVGTTSQDSALLDQELYNSFHFWRTPLPEIDLDIELEQNSGGKPSPEGPEEESEGPVPSSPNITMATRKELEEMIENLEPHIDDPDVKAQVEVLSAALRASSLDAHEETISIEKRSDLQDELDINELPNCKINQEDSVPLISDAVENMDSTLHYIHSDSDLSNNSSFSPDEERRTKVQDVVPQALLDQYLSMTDPSRAQTVDTEIAKHCAYSLPGVALTLGRQNWHCLRETYETLASDMQWKVRRTLAFSIHELAVILGDQLTAADLVPIFNGFLKDLDEVRIGVLKHLHDFLKLLHIDKRREYLYQLQEFLVTDNSRNWRFRAELAEQLILLLELYSPRDVYDYLRPIALNLCADKVSSVRWISYKLVSEMVKKLHAATPPTFGVDLINELVENFGRCPKWSGRQAFVFVCQTVIEDDCLPMDQFAVHLMPHLLTLANDRVPNVRVLLAKTLRQTLLEKDYFLASASCHQEAVEQTIMALQMDRDSDVKYFASIHPASTKISEDAMSTASSTY
B2: HA-PP4R1, ITT produced (protein, UniProt Q8TF05 1-950)
chain: B1 chain
B3: FLAG-tagged PP4c, ITT produced (enzyme, UniProt P60510 1-307)
chain: T1 sequence
B4: endogenous PP4c (MCC13 cells) (enzyme, UniProt P60510 1-307)
chain: T1 sequence

Columns and labels:
[1] = target: T1, FLAG-PP4c (expressed in cells); test: co-IP
[2] = target: FLAG-tagged full-length NEMO (1-419) (UniProt Q9Y6K9); test: co-IP
[3] = target: GST-NEMO (wild type, pEBG2T-NEMO, expressed in cells) (UniProt Q9Y6K9); test: pull-down; lysates of MCC13 cells expressing GST, GST-NEMO or GST-NEMO D311N with GFP-tAg incubated with glutathione-agarose beads; blots for GST, GFP, PP4c and PP4R1
GST-NEMO D311N = GST-NEMO D311N (UniProt Q9Y6K9); test: as above
[4] = target: GST-NEMO (bacterially expressed, pGEX6P1) (UniProt Q9Y6K9); test: pull-down; bacterially expressed GST fusion on glutathione-agarose beads, incubated 3 hours in lysis buffer with one ITT produced protein alone, western blot; only the target purified

Binder	binding [1]	binding [2]	binding [3]	binding (GST-NEMO D311N)	binding [4]
B1	binds	binds	binds	binds	
B2					binds
B3					binds
B4			binds	binds	
